# Assay results: patent US20230193513A1
# Sequences of proteins named here, by UniProt entry; tags and fusion partners are left off. A change or cut given only in a name is not applied to a line headed by its entry.
# UniProt P43220: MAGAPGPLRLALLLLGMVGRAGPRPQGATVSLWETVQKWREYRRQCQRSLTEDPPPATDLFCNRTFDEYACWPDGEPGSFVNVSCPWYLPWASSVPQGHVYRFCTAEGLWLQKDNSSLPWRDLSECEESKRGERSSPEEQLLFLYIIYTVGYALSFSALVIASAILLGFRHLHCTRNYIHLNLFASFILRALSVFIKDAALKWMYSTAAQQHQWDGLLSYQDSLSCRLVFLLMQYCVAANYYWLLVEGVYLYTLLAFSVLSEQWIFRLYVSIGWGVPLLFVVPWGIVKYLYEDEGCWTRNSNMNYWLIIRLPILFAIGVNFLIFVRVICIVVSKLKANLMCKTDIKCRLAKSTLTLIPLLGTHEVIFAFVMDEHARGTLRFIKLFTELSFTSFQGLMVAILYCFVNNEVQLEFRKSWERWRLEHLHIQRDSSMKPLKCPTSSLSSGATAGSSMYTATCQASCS
# No constants are given. Whether binding was seen depends on the method and setting. Some results given as binding are weak or reduced against the parent protein; the word gives no strength.
# Target: flag-GLP1R-GFP expressed on CHO cells (Homo sapiens (Human)) (UniProt P43220)
# Test: flow cytometry, IgG on CHO-GLP1R cells; bound equally to CHO-parent cells (non-specific binder)
binder,measurement,value
"GLP1R-238 (antibody, human IgG2, lambda, V domains shown) VH: QVQLVQSGAEVKKPGSSVKVSCKASGGSFSSHAISWVRQAPGQGLEWMGGIIPIFGAPNYAQKFQGRVTITADESTSTAYMELSSLRSEDTAVYYCARANQHFSQAGRAARVPGPSSSLGPRGYHYYGMDVWGQGTLVTVSS VL: QSVLTQPPSVSAAPGQKVTISCSGSTSNIANNYVSWYQQLPGTAPKLLIYANNRRPSGIPDRFSGSKSGTSATLGITGLQTGDEADYYCGAWDVRLDVGVFGGGTKLTVLG",binding,binds
